The values below come from paper PMC7463734, “Identification and Validation of an Aspergillus nidulans Secondary Metabolite Derivative as an Inhibitor of the Musashi-RNA Interaction” (Cancers, 2020).

Amino acid sequences for entries named in this document (tags omitted). A change or cut given only in a name is not applied to a line headed by its entry.
UniProt O43347: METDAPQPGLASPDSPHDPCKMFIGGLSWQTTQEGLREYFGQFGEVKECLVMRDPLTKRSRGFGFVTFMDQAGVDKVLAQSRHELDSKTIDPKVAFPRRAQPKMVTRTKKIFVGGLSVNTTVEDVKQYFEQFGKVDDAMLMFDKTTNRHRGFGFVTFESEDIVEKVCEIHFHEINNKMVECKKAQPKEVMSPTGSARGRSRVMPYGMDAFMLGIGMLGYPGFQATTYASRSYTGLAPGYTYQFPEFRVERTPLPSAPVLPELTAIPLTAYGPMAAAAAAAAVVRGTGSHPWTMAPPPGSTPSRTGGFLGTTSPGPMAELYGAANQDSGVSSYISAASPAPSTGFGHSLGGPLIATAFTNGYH

Construct, isoform or probe ends are uncertain for at least one entry. For some assays here: Results from cells or extracts need not show a direct contact. For some assays here: At least one verdict was read from the data and is not stated in words by the source. For some assays here: Protein sequences can lack the tags named with them.

For data set [1], the target named is MSI1 (HCT-116 β/W cell lysate) (Homo sapiens) (UniProt O43347). Nature of the data set: competition with a labelled probe. To be noted: pull-down, abolishes Numbbiotin-MSI1 binding; protein in an extract.
The target of a further data set is T1, MSI2-RBD1 (UniProt Q96DH6).
T1 sequence (looked up, limits assumed): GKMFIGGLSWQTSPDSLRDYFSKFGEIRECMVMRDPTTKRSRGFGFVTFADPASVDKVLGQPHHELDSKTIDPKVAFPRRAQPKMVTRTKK
Put plainly: fluorescence polarization. As to conditions: binding disrupted by Aza-9; FP with 2 nM FITC-RNA; 0-2% DMSO had no significant effect (2 h incubation); pH and temperature not given (cited to earlier publications); recombinant protein; label: 3'-FITC. A general note: Polarisation of emitted light reports the rotation of a fluorescent probe.

In the case of UAGGUAGUAGUUUUA [Numb RNA, unlabeled], the binding result in data set [1] is “binds”.

As for UAGGUAGUAGUUUUA [NumbFITC RNA], the binding result with MSI2-RBD1 is given as “binds”.
